Reference: publication PMC2814343 (Analytical chemistry, 2010)

Test system: monoclonal mouse anti-morphine IgG1 (α-M Ab)
Assay: Label-free porous silicon
Conditions: read-out: EC50 (effective concentration where 50% of signal response was attained); α-M Ab 1.83 μM (15 μl); morphine in urine 15 μl

Q: With `CN1CC[C@]23c4c5ccc(O)c4O[C@H]2[C@@H](O)C=C[C@H]3[C@H]1C5` [morphine, Morphine] as the compound, how does the EC50 read?
A: Its EC50 is 1360 nM.
